This passage reports Body weight, Insulin and Adiponectin results from patent publication US20110207694A1, “MAMMALIAN HYPOTHALAMIC NUTRIENT MODULATION OF GLUCOSE METABOLISM” (priority 2005, published 2011).

In the data set the test system is male Sprague-Dawley rats. The data set is described as follows: ICV infusion: plasma triglycerides and metabolites under basal and pancreatic clamp conditions. It counts as in vivo, rat. The settings on record: for Insulin / Adiponectin: plasma. An excerpt: Animal preparation. We studied 10-week-old male Sprague-Dawley rats. Rats underwent stereotaxic surgery to indwell single catheters in the third cerebral ventricle {intracerebroventricular (ICV)(Obici et al., 2001) or bilateral catheters into the mediobasal hypothalamus (Lam et al., 2005c). One week later, we placed indwelling catheters in the internal jugular vein and carotid artery for sampling and infusion during the in vivo experiments (Obici et al., 2001). Recovery from surgery was monitored by measuring daily food intake and weight gain for 4-5 days after surgery.
Infusion protocols. The in vivo infusion experiments lasted a total of 360 min, and the experiments were carried out in rats that had their food removed ˜5 h before the experiments. Thus, at the time of the experiment, the rats are in post-absorptive state since their stomach should be completely emptied by 5 h fasting. […] This ICV glucose protocol physiologically elevate hypothalamic glucose concentration by ˜70% as previously described (Lam et al., 2005b) and is similar to that induced by a doubling of the circulating glucose levels (Lam et al., 2005b). During the ICV infusions, we monitored the plasma metabolite levels under pre-infused (0 min), basal (180-240 min) and pancreatic clamp (300-360 min) conditions. […] A basal insulin-pancreatic clamp was performed in the final 2 h (240-360 min) of the study as previously described (Lam et al., 2005b). In brief, a continuous infusion of insulin (1 mU/kg.min) and somatostatin (3 μg/kg.min) was administered, and a variable infusion of a 25% glucose solution was started and periodically adjusted to clamp and maintain the plasma glucose concentration at ˜8 mM. […] To examine the time-dependent effects of ICY glucose on plasma triglycerides, ICY (5 μl/h) 2 mM D-glucose or mannitol was administrated for 210 min and plasma triglyceride levels were monitored at 0, 20, 60, 120, 180, 210 min. […] Plasma triglycerides were monitored under basal, pancreatic clamp and tyloxapol-treated conditions. At the end of the infusion experiments, rats were anesthetized and tissue samples were freeze-clamped in situ with aluminum tongs pre-cooled in liquid nitrogen. All tissue samples were stored at −80° C. for subsequent analysis.
Biochemical analyses. Plasma glucose concentrations were measured by the glucose oxidase method (Glucose Analyzer II, Beckman Instruments, Inc., Fullerton, Calif.). […] FFA concentrations were determined by an enzyme assay in accordance with the manufacturer's specifications (Waco Pure Chemical Industries. Osaka. Japan). Plasma insulin concentrations (with rat and porcine insulin standards) were measured by radioimmunoassay (RIA). Plasma adiponectin concentrations were measured by RIA (Linco Inc., Austin, Tex., USA). Liver triglycerides were measured as described (Muse et al., 2004).
Calculations. Statistical analysis was done by unpaired Student's t test or analysis of variance as appropriate. Data are presented as means±SEM. All values were collapsed into a single value for each animal prior to the calculation of mean. The time period 180-240 min was averaged for the basal and the time period 300-360 min was averaged for the clamp conditions.

Setting [1] is: Basal, central glucose administration.
Where [2] appears, read: Clamp, central glucose administration.
Setting [3] is: Clamp, central lactate administration.
Where [4] appears, read: Saline, central lactate administration.

Take `O=C[C@H](O)[C@@H](O)[C@H](O)[C@H](O)CO` [glucose, D-glucose]: under setting [1], the Body weight worked out at 302 ± 7 g and the Insulin is 14 ± 5 μU/ml. Under setting [2], the Adiponectin was 1.5 ± 0.1 ηg/ml and the Insulin is recorded as 32 ± 5 μU/ml.
Turning to `C[C@H](O)C(=O)O` [lactate, L-lactate], under setting [3], the Adiponectin is 1.1 ± 0.3 ηg/ml and the Insulin is 32 ± 7 μU/ml. Under setting [4], the Body weight is on record as 309 ± 8 g and the Insulin was 15 ± 3 μU/ml.
